Experimental data published in paper PMC12143136.
These are yes or no findings as the source states them, for the method shown. Binding seen in cells or lysates may run through a third protein. Some entries that bind do so weakly or less than the wild type. For some of these results: Sequences can lack the tags named with a protein. Values belong to the molecule of their own block, whether it stands above or below them.

By UniProt entry, the sequences of proteins in these tests, tags left out. Residues count along the entry.
UniProt P13612, residues 34-1032: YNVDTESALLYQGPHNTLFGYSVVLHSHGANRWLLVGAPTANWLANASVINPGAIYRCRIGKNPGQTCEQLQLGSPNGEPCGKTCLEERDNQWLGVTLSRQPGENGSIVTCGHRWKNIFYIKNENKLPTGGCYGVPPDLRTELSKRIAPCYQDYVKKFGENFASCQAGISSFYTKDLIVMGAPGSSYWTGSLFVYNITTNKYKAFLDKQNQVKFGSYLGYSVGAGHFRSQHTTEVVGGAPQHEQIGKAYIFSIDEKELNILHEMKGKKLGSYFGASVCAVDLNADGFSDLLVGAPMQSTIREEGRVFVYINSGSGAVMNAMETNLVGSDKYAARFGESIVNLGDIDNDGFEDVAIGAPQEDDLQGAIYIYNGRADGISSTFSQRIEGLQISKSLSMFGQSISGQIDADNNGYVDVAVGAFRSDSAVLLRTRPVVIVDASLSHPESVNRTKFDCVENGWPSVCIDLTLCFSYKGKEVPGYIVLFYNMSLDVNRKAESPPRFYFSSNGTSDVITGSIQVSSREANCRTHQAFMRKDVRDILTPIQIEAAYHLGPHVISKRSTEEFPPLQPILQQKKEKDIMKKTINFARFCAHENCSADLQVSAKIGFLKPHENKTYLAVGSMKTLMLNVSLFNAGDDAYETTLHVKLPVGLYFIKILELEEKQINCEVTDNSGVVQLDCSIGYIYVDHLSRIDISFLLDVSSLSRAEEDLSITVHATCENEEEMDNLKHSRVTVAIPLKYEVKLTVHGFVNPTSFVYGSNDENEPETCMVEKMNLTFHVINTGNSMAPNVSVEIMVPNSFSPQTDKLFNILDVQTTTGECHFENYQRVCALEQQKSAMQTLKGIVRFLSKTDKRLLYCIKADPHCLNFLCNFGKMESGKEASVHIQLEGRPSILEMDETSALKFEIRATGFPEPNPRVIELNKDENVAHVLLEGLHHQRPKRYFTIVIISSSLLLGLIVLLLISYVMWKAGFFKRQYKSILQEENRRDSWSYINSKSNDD

Key:
[1] = target: T1, CD37 (UniProt P11049); experiment: co-IP; endogenous proteins; precipitated by anti-CD37 antibodies conjugated with protein A + G agarose; ITGA4 and ITGB7 verified in the immunoprecipitation samples
T1 sequence: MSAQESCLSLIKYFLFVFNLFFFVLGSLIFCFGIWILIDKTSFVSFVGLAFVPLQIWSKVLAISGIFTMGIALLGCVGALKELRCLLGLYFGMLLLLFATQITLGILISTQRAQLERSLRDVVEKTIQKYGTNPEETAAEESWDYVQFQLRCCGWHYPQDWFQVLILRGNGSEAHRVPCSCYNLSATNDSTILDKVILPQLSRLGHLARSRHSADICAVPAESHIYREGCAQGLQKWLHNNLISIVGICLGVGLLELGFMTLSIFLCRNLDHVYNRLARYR

[2] = target: T2, CD37-FLAG (UniProt P11049); experiment: co-IP; exogenous CD37-FLAG, ITGA4-HIS and ITGB7-HIS from plasmids; which tag was precipitated is not stated
T2 sequence: T1 sequence

- binding [1]: binds
Molecule: ITGA4 (from UniProt P13612 34-1032)

- binding [2]: binds
Molecule: ITGA4-HIS (from UniProt P13612 34-1032)

- binding [1]: binds
B1: integrin beta 7 (ITGB7) (protein, UniProt P26010 20-798)
chain: ELDAKIPSTGDATEWRNPHLSMLGSCQPAPSCQKCILSHPSCAWCKQLNFTASGEAEARRCARREELLARGCPLEELEEPRGQQEVLQDQPLSQGARGEGATQLAPQRVRVTLRPGEPQQLQVRFLRAEGYPVDLYYLMDLSYSMKDDLERVRQLGHALLVRLQEVTHSVRIGFGSFVDKTVLPFVSTVPSKLRHPCPTRLERCQSPFSFHHVLSLTGDAQAFEREVGRQSVSGNLDSPEGGFDAILQAALCQEQIGWRNVSRLLVFTSDDTFHTAGDGKLGGIFMPSDGHCHLDSNGLYSRSTEFDYPSVGQVAQALSAANIQPIFAVTSAALPVYQELSKLIPKSAVGELSEDSSNVVQLIMDAYNSLSSTVTLEHSSLPPGVHISYESQCEGPEKREGKAEDRGQCNHVRINQTVTFWVSLQATHCLPEPHLLRLRALGFSEELIVELHTLCDCNCSDTQPQAPHCSDGQGHLQCGVCSCAPGRLGRLCECSVAELSSPDLESGCRAPNGTGPLCSGKGHCQCGRCSCSGQSSGHLCECDDASCERHEGILCGGFGRCQCGVCHCHANRTGRACECSGDMDSCISPEGGLCSGHGRCKCNRCQCLDGYYGALCDQCPGCKTPCERHRDCAECGAFRTGPLATNCSTACAHTNVTLALAPILDDGWCKERTLDNQLFFFLVEDDARGTVVLRVRPQEKGADHTQAIVLGCVGGIVAVGLGLVLAYRLSVEIYDRREYSRFEKEQQQLNWKQDSNPLYKSAITTTINPRFQEADSPTL

- binding [2]: binds
B2: ITGB7-HIS (protein, UniProt P26010 20-798)
chain: B1 chain
